# Reference: publication PMC7819943, “Rice protein-binding microarrays: a tool to detect cis-acting elements near promoter regions in rice”
# This is one part of the list.
# Biological target: T1, OsSMF1 (Oryza sativa, UniProt Q6ZLB0 1-436)
# T1 sequence: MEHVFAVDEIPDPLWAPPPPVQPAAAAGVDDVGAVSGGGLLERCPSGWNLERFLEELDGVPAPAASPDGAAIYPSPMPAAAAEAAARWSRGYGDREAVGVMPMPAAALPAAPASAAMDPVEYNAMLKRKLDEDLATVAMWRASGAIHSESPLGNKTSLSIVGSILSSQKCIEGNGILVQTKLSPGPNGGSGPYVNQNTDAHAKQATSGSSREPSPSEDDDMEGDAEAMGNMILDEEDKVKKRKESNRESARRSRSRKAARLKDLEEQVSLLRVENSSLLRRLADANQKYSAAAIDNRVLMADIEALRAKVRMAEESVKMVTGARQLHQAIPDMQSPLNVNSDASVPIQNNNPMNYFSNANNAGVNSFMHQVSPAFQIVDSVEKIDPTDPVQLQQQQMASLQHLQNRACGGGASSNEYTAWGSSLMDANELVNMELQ
# Test: protein-binding microarray (RPBM); PBS, 2% BSA, 51.3 ng/ul salmon testes DNA, 50 uM zinc acetate, 200 nM TF, 25 C, 1 h; high values mean tight binding
# Details: protein: recombinant; tags: N-terminal polyhistidine and DsRed monomer fusion (pET32a); chain copies: 2; label: CyDye5-dUTP incorporated in the synthesized complementary strand; 3' TTTTT single-stranded linker to array surface; dsDNA, one strand shown
# Procedure, shortened: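 An Axon 4000B scanner gave the binding signal as per-feature fluorescence intensity in arbitrary units. This followed washing of a custom Agilent array that had been incubated for 1 h at 25 °C with 200 nM protein in PBS, 2% BSA, salmon testes DNA and 50 µM zinc acetate. The proteins were transcription factors fused at the N-terminus to polyhistidine and DsRed, expressed in E. coli BL21-CodonPlus and purified on Ni–NTA.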
row,Sequence,binding signal
1,CGAGCTTTGATTGTTTGTTAGTAGTAGTAATTTTCTCATGCGGAGTCACCTAGTGCAG,3270 fluorescence intensity (a.u.)
2,CTACTAGCTCACACTGTCACAGTCACCACACAGCTACTAGCGGAGTCACCTAGTGCAG,4900 fluorescence intensity (a.u.)
3,CTGTAACACAGACTAAATATGTATGTGTGTATGACATGTGCGGAGTCACCTAGTGCAG,3510 fluorescence intensity (a.u.)
4,ACGTCGCGTGCTGCTGCCGTGCCCGCGTACGTGCCGTGCTCGGAGTCACCTAGTGCAG,3180 fluorescence intensity (a.u.)
5,GCGCAGAGGAGAGGAGGAGGATATCGAGTGCGGGCCGGAGCGGAGTCACCTAGTGCAG,4140 fluorescence intensity (a.u.)
6,CCCGATCAGTTGACACTCGTCGTCGCCCTTCTCTTCGCCACGGAGTCACCTAGTGCAG,3620 fluorescence intensity (a.u.)
7,CTGGCTGTCGTCAGCTGTCACACCCCAAACCTGCACGTGCCGGAGTCACCTAGTGCAG,3340 fluorescence intensity (a.u.)
8,CATCAGCGTACGCGAACGGGCTCTCGCCGTGCGGTGGCGTCGGAGTCACCTAGTGCAG,22500 fluorescence intensity (a.u.)
9,TGTGATGAACAATTAGCATATGAGATTATCGGTTTTAATACGGAGTCACCTAGTGCAG,3260 fluorescence intensity (a.u.)
10,CCACGCGCAAAAGCTGAGCTGCCACGAACGCGCCGTCACCCGGAGTCACCTAGTGCAG,5920 fluorescence intensity (a.u.)
11,GGCGGCGGAGGGCAGTGCTAGGGCTGACACGTTGAGGCGTCGGAGTCACCTAGTGCAG,3230 fluorescence intensity (a.u.)
12,CTTGTCACTCAGCCAGCATGATGATGAGATTGAGGTTGATCGGAGTCACCTAGTGCAG,24500 fluorescence intensity (a.u.)
13,AGTCAGGGTGCTTGATGAGACAGGTGACTTCATCACCGGACGGAGTCACCTAGTGCAG,3170 fluorescence intensity (a.u.)
14,GAAGGTCTCCCTCCTCAGCGCCGTCATCAAGCACATGAGCCGGAGTCACCTAGTGCAG,4320 fluorescence intensity (a.u.)
15,CCACCACCGCCACCGCCACCGCCACCGCCCCTACACCTGCCGGAGTCACCTAGTGCAG,4710 fluorescence intensity (a.u.)
16,CTAGGAGAGGGAAAAGGCAAAGATACTGATACATACATGACGGAGTCACCTAGTGCAG,3360 fluorescence intensity (a.u.)
17,CCGGTTTTCTCCGCAGTTTCTTGATCCATCCGCCTTTCCTCGGAGTCACCTAGTGCAG,4640 fluorescence intensity (a.u.)
18,TAGCGCGCGAAGGGACGCCATGGCCGCCACGCACGCACCTCGGAGTCACCTAGTGCAG,10900 fluorescence intensity (a.u.)
19,CTTCCCATCCCAGCCGCCACGCCCACGCGTCGCAAGCCGCCGGAGTCACCTAGTGCAG,5290 fluorescence intensity (a.u.)
20,ATCGGACATTAAACCACCCAAAGTTGACGGTTTGCTTGGTCGGAGTCACCTAGTGCAG,3240 fluorescence intensity (a.u.)
21,CCAAGCGCGCGCGTCGCTGGTCCAACGCGGACGGAGCCGGCGGAGTCACCTAGTGCAG,3400 fluorescence intensity (a.u.)
22,TCCTGAACAGCATCGCAACTGGAAGAAGACGGAGGGAGGGCGGAGTCACCTAGTGCAG,36700 fluorescence intensity (a.u.)
23,CCCCTCCTCCCCTTCTCTCCCCTCTCCTCCTCGCTTCCGGCGGAGTCACCTAGTGCAG,3950 fluorescence intensity (a.u.)
24,GGTAGGGTTGGGATGGGATGTGCAAGTAACCCGGGTGGATCGGAGTCACCTAGTGCAG,4060 fluorescence intensity (a.u.)
25,CGTGCGCGTGGCGTGGCGTGGCGTGACGCGGCGATGGCGGCGGAGTCACCTAGTGCAG,9130 fluorescence intensity (a.u.)
26,TTAGTCAAAACCGTTGAGGGATTCAATTTGCACTAATTTTCGGAGTCACCTAGTGCAG,27600 fluorescence intensity (a.u.)
27,TATAACTCGCAGCCCATCTCACGGCGAGGAGCGAGCTAAACGGAGTCACCTAGTGCAG,19000 fluorescence intensity (a.u.)

# Three entries from above, reformatted.
row | Sequence | binding signal
2 | CTACTAGCTCACACTGTCACAGTCACCACACAGCTACTAGCGGAGTCACCTAGTGCAG | 4900 fluorescence intensity (a.u.)
15 | CCACCACCGCCACCGCCACCGCCACCGCCCCTACACCTGCCGGAGTCACCTAGTGCAG | 4710 fluorescence intensity (a.u.)
21 | CCAAGCGCGCGCGTCGCTGGTCCAACGCGGACGGAGCCGGCGGAGTCACCTAGTGCAG | 3400 fluorescence intensity (a.u.)

# The results go on:

row,Sequence,binding signal
1,TGTGTATTCATAGGGGCGAGTGAGCGTGCGTTGTGAGTATCGGAGTCACCTAGTGCAG,3360 fluorescence intensity (a.u.)
2,CTTGTCTAGTGGGCCTCTATGAAACGTGGCCCAACTTCCCCGGAGTCACCTAGTGCAG,4560 fluorescence intensity (a.u.)
3,CATCCAGCTAGTTGTATATACTTACTCCATCTGTCCAAAACGGAGTCACCTAGTGCAG,3160 fluorescence intensity (a.u.)
4,TTCTTGGGGCTGGAGAGGGTGGGGATGGTGGTGCGGATGCCGGAGTCACCTAGTGCAG,3560 fluorescence intensity (a.u.)
5,GCTCCATCCCGAGGCAGGAGGCGGAGGAAGGGCAGGGCGGCGGAGTCACCTAGTGCAG,27600 fluorescence intensity (a.u.)
6,TTTGTTGTACTAGGATGTGTCACATCCGGTACTAGGTTGGCGGAGTCACCTAGTGCAG,4570 fluorescence intensity (a.u.)
7,GCTTTGCCACGCAGATCGCGGTCGTTTTCAATCGCACCGGCGGAGTCACCTAGTGCAG,5280 fluorescence intensity (a.u.)
8,TTGCTCACTTGTTCTGTTCTTGCCCGGTCAACTTGCGACGCGGAGTCACCTAGTGCAG,3450 fluorescence intensity (a.u.)
9,TGAACGTTTTGATGTGTTCACACATTACACGTTACTAGTACGGAGTCACCTAGTGCAG,3700 fluorescence intensity (a.u.)
10,CTCGGGGCAAACTTGGGACCCACGCGTCAGCCTTTTCTTTCGGAGTCACCTAGTGCAG,5480 fluorescence intensity (a.u.)
11,TATTGATTTCCACTATTCCCTTTGTAATCTGTGATTTCCACGGAGTCACCTAGTGCAG,3380 fluorescence intensity (a.u.)
12,GAAATTCGCGGATGCCGCGTGCGCGTCATACCCTGAACCTCGGAGTCACCTAGTGCAG,6200 fluorescence intensity (a.u.)
13,GTTCATGAGTACCGAAAGGTGGATTCTTTTCAGTTTCTTGCGGAGTCACCTAGTGCAG,3750 fluorescence intensity (a.u.)
14,CGTCCGATCCACCGATTTGCCACGAATTGCTGTTATTGTTCGGAGTCACCTAGTGCAG,3400 fluorescence intensity (a.u.)
15,GGCGTTGGCTTGGCCCGGCGGCGGTGATGTGGCGCGTGACCGGAGTCACCTAGTGCAG,7030 fluorescence intensity (a.u.)
16,TACCGTTCATCCACGTCTCATCTAATCTCATCCGTCCGCTCGGAGTCACCTAGTGCAG,5400 fluorescence intensity (a.u.)
17,CCAGTGAGCCACGGCTACCCATCTGGATCCAGCTCCTCCACGGAGTCACCTAGTGCAG,3610 fluorescence intensity (a.u.)
18,GCCCCACTCCCAACCCATCTCCACCGTCCGTCTCCATCCGCGGAGTCACCTAGTGCAG,3610 fluorescence intensity (a.u.)
19,AGTGGGCCCACGTGCCACGTCACCCGCGGTGTGAATGTGTCGGAGTCACCTAGTGCAG,19200 fluorescence intensity (a.u.)
20,CACAGATCACCAAGCCACAATCGCCCACACACAAATACTCCGGAGTCACCTAGTGCAG,3480 fluorescence intensity (a.u.)
21,ATTTCACCTTGCGCCTCAGTCAGCTTTCATCACCACAGCACGGAGTCACCTAGTGCAG,3580 fluorescence intensity (a.u.)
22,TGGACCCACATGTCAGTGACTCAATGTCACCGAGAATGTCCGGAGTCACCTAGTGCAG,6000 fluorescence intensity (a.u.)
23,GTTCAGAATCTCCCGGACGGAGCACGAACATGTGTGTTGTCGGAGTCACCTAGTGCAG,3250 fluorescence intensity (a.u.)
24,GGCCAGTTCTCTTCCACGTGGAGGCGGCCTCTCACAGCCGCGGAGTCACCTAGTGCAG,10300 fluorescence intensity (a.u.)
25,CTAGGGATTTAAACTCCAGAAGTTGTAATTTTGTGATAAGCGGAGTCACCTAGTGCAG,27500 fluorescence intensity (a.u.)
26,GGACTGACTTTTGAGTGATCGTCAAACCCGTTGTTACATGCGGAGTCACCTAGTGCAG,3620 fluorescence intensity (a.u.)
27,CTTATTCTCATGTGGTGTGATGTGTAATTCACATGGTTGACGGAGTCACCTAGTGCAG,7100 fluorescence intensity (a.u.)
